# Measurements as given in the supplement of paper PMC10849652.
# Chains of the proteins cited; added tags and fusions are not shown. Lines headed by an entry give the natural chain unless they say otherwise; changes in a name come on top.
# UniProt Q15424: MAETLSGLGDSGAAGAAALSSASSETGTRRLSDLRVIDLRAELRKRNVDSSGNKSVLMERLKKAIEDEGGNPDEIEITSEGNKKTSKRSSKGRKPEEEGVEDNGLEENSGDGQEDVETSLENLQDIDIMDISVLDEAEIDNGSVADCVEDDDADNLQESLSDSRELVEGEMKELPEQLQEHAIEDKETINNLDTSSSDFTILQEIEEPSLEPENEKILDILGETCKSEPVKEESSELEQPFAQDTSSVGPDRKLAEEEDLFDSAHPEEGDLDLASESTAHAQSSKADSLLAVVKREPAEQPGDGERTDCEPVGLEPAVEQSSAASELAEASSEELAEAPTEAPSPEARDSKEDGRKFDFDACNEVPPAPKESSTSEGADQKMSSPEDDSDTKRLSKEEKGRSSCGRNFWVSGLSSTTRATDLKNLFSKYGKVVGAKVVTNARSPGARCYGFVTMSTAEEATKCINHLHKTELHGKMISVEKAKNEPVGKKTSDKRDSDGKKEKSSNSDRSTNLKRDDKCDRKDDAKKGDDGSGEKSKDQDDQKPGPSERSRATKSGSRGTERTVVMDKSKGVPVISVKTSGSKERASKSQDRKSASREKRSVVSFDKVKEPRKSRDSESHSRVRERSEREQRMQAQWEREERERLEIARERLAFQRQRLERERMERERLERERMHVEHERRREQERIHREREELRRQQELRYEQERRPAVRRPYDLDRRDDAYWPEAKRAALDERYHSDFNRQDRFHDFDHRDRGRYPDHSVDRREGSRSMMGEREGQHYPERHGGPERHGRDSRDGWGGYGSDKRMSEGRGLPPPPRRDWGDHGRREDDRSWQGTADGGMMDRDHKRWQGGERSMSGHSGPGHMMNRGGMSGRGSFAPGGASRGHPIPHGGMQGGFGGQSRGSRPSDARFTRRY
# UniProt Q9Y3A5: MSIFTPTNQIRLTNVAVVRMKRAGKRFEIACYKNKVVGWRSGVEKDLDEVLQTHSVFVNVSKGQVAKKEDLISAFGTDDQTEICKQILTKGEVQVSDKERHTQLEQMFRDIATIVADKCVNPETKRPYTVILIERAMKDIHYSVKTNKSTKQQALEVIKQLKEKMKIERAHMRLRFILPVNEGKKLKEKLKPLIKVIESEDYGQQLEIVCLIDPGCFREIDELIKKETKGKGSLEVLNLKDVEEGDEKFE
# UniProt Q14160: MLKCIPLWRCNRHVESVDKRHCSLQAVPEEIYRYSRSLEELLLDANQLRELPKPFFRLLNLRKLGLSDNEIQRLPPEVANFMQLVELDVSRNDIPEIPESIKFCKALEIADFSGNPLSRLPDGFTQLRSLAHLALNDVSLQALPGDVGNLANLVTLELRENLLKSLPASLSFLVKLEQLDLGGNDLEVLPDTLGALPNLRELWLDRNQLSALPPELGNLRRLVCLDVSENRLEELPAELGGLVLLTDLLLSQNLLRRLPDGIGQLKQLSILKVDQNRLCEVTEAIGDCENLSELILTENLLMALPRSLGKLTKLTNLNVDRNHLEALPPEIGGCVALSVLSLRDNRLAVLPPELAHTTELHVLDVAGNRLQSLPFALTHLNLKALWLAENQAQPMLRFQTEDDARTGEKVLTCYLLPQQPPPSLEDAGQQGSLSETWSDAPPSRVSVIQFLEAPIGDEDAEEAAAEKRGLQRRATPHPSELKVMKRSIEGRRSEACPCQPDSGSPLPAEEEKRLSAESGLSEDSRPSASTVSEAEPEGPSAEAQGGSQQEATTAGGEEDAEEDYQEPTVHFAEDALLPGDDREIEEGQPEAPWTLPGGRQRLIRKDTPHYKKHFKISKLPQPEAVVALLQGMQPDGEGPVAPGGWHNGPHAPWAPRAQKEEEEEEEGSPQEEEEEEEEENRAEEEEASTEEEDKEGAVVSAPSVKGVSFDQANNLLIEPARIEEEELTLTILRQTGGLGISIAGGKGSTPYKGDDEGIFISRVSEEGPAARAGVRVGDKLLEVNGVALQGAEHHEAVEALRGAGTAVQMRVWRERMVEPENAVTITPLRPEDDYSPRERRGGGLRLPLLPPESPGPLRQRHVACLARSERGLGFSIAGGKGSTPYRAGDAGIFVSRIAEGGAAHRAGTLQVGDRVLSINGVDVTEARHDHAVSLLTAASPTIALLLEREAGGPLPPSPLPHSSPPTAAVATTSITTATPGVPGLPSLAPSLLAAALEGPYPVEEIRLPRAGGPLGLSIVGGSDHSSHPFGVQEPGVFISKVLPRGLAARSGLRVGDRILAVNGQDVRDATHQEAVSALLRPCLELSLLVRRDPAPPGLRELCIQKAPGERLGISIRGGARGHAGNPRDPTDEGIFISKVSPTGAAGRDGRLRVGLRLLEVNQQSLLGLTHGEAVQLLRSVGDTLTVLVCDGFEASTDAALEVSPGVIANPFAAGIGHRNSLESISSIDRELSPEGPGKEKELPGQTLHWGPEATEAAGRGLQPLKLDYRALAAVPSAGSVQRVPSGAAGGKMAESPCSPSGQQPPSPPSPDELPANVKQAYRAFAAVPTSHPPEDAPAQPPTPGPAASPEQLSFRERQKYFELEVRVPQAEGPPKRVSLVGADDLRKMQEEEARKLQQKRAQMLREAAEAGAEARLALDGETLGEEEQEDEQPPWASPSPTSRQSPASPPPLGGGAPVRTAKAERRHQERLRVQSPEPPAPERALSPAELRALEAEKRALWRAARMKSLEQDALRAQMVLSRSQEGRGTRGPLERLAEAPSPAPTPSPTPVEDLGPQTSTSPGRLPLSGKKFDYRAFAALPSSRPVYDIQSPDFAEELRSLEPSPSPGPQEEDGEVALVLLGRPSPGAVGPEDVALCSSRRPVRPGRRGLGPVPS
# UniProt Q96FV2: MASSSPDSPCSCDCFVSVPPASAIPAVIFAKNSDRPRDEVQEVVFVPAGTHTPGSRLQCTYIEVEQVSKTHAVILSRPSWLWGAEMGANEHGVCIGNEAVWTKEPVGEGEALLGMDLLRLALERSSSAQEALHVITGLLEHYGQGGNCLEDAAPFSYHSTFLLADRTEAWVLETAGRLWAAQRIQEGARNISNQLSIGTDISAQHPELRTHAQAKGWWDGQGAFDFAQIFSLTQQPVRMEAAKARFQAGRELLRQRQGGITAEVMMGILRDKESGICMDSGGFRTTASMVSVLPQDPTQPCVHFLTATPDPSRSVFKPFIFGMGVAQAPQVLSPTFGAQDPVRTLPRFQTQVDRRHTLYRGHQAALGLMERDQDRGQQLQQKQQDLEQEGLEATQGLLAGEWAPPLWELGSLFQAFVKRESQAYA
# UniProt Q9NR31: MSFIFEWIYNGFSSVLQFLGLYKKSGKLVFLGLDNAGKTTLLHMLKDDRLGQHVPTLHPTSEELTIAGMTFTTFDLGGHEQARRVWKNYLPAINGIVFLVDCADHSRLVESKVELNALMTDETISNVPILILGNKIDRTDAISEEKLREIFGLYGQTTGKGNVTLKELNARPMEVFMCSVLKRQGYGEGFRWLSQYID
# UniProt O75880: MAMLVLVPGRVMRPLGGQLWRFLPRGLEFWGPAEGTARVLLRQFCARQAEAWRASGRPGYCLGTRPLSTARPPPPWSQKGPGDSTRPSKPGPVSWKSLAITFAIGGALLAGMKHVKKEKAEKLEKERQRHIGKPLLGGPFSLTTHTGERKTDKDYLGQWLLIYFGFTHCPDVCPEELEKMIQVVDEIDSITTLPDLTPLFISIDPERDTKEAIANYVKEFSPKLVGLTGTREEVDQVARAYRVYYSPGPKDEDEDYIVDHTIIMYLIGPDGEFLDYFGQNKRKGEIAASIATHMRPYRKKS
# UniProt Q8WVM8, whole entry, looked up: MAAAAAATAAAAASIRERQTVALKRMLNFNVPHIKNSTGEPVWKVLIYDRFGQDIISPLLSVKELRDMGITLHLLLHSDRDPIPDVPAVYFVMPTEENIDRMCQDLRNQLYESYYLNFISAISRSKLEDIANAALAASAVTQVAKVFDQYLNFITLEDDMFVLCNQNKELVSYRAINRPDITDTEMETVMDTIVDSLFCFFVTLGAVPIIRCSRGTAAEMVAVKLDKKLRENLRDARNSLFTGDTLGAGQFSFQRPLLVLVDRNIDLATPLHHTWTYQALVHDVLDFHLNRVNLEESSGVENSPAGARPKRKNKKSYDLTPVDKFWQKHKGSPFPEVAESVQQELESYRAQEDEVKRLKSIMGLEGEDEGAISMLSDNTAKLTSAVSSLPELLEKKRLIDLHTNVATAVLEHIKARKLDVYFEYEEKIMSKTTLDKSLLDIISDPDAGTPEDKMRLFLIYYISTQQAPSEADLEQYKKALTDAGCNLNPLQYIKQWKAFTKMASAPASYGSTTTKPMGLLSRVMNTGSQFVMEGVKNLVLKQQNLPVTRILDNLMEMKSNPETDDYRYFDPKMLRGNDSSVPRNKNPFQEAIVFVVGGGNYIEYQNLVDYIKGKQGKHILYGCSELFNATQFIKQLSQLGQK
# The other results are listed elsewhere or left out.
# Columns and labels:
# Assay in all cases: log2 fold change, soluble protein after heating vs DMSO (PISA); higher = thermal stabilisation; K562 lysate, 10 uM; active = over 0.2 and 3.5 SD of the protein, either way, in both replicates (recomputed)
# alvocidib = compound: CN1CC[C@H](c2c(O)cc(O)c3c(=O)cc(-c4ccccc4Cl)oc23)[C@H](O)C1 [alvocidib]
# Outline: (§1)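 Soluble protein was defined as the supernatant remaining after 21,000xg for 90 min, following pooling of heated aliquots and adjustment to 0.5% NP-40 at 4°C. Before that, crude K562 extract at 1 mg/mL protein in PBS pH 7.4 with 1 mM MgCl2 was treated with 10 μM compound for 30 min and heated for 3 min across 48°C-58°C. Quantification used TMTpro 16plex LC-MS/MS with channel sums equalised, and values are log-two fold changes in thermal stability relative to solvent controls from duplicates.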
# Tubastatin A = compound: CN1CCc2c(c3ccccc3n2Cc2ccc(C(=O)NO)cc2)C1 [Tubastatin A]
# Outline: as §1
# [1] = compound: CNC(=O)C1=CC=CC=C1NC2=NC(=NC=C2Cl)NC3=C(C=C(C=C3)N4CCOCC4)OC
# Outline: as §1
# defactinib = compound: CNC(=O)c1ccc(Nc2ncc(C(F)(F)F)c(NCc3nccnc3N(C)S(C)(=O)=O)n2)cc1 [defactinib]
# Outline: as §1
# [2] = compound: CNc1nc(-c2ccc3c(N)n[nH]c3c2)cc(N2C[C@@H](C(=O)NC3CCCCC3)CC[C@H]2C)n1
# Outline: as §1
# encorafenib = compound: COC(=O)N[C@@H](C)CNc1nccc(-c2cn(C(C)C)nc2-c2cc(Cl)cc(NS(C)(=O)=O)c2F)n1 [encorafenib]
# Outline: as §1
# [3] = compound: COC(=O)[C@H](CCSC)NC(=O)C1=C(C=C(C=C1)NC[C@H](CS)N)C2=CC=CC=C2
# Outline: as §1
# alisertib = compound: COc1cc(Nc2ncc3c(n2)-c2ccc(Cl)cc2C(c2c(F)cccc2OC)=NC3)ccc1C(=O)O [alisertib]
# Outline: as §1
# [4] = compound: COc1cc2nc(-c3cc(F)ccc3O)nc(N[C@@H]3CNC[C@H]3C(C)(C)O)c2cc1OC
# Outline: as §1
# gefitinib = compound: COc1cc2ncnc(Nc3ccc(F)c(Cl)c3)c2cc1OCCCN1CCOCC1 [gefitinib]
# Outline: as §1
# lapatinib = compound: CS(=O)(=O)CCNCc1ccc(-c2ccc3ncnc(Nc4ccc(OCc5cccc(F)c5)c(Cl)c4)c3c2)o1 [lapatinib]
# Outline: as §1
# pictilisib = compound: CS(=O)(=O)N1CCN(Cc2cc3nc(-c4cccc5[nH]ncc45)nc(N4CCOCC4)c3s2)CC1 [pictilisib]
# Outline: as §1
# crizotinib = compound: C[C@@H](Oc1cc(-c2cnn(C3CCNCC3)c2)cnc1N)c1c(Cl)ccc(F)c1Cl [crizotinib]
# Outline: as §1
# [5] = compound: C[C@H](C1=CC=C(C=C1)C(=O)NC2=C3C=CNC3=NC=C2)N
# Outline: as §1
# duvelisib = compound: C[C@H](Nc1ncnc2nc[nH]c12)c1cc2cccc(Cl)c2c(=O)n1-c1ccccc1 [duvelisib]
# Outline: as §1
# gandotinib = compound: Cc1cc(Nc2cc(CN3CCOCC3)c3nc(C)c(Cc4ccc(Cl)cc4F)n3n2)n[nH]1 [gandotinib]
# Outline: as §1
# tozasertib = compound: Cc1cc(Nc2cc(N3CCN(C)CC3)nc(Sc3ccc(NC(=O)C4CC4)cc3)n2)n[nH]1 [tozasertib]
# Outline: as §1
# doramapimod = compound: Cc1ccc(-n2nc(C(C)(C)C)cc2NC(=O)Nc2ccc(OCCN3CCOCC3)c3ccccc23)cc1 [doramapimod]
# Outline: as §1
# bafetinib = compound: Cc1ccc(NC(=O)c2ccc(CN3CC[C@H](N(C)C)C3)c(C(F)(F)F)c2)cc1Nc1nccc(-c2cncnc2)n1 [bafetinib]
# Outline: as §1
# [6] = compound: Cc1cccc(CC(=O)N2CCc3c2ccc(-c2cn(C)c4ncnc(N)c24)c3F)n1
# Outline: as §1
Target,log2 fold change (alvocidib),log2 fold change (Tubastatin A),log2 fold change [1],log2 fold change (defactinib),log2 fold change [2],log2 fold change (encorafenib),log2 fold change [3],log2 fold change (alisertib),log2 fold change [4],log2 fold change (gefitinib),log2 fold change (lapatinib),log2 fold change (pictilisib),log2 fold change (crizotinib),log2 fold change [5],log2 fold change (duvelisib),log2 fold change (gandotinib),log2 fold change (tozasertib),log2 fold change (doramapimod),log2 fold change (bafetinib),log2 fold change [6]
SAFB isoform 3 (UniProt Q15424),inactive: -0.004,inactive: 0.024,inactive: -0.016,inactive: -0.043,inactive: 0.075,inactive: 0.021,inactive: -0.034,inactive: 0.062,inactive: -0.028,inactive: 0.263,inactive: -0.006,inactive: 0.008,inactive: -0.002,inactive: -0.075,inactive: -0.011,inactive: 0.065,inactive: 0.009,inactive: -0.011,inactive: -0.016,inactive: 0.016
SBDS (UniProt Q9Y3A5),inactive: -0.018,inactive: 0.046,inactive: -0.006,inactive: 0.038,inactive: 0.032,inactive: -0.038,inactive: 0.01,inactive: -0.001,inactive: -0.014,inactive: -0.01,inactive: -0.01,inactive: 0.01,inactive: 0.012,inactive: -0.063,inactive: -0.013,inactive: 0.032,inactive: -0.006,inactive: 0,inactive: -0.018,inactive: 0.036
SCRIB (UniProt Q14160),inactive: -0.013,inactive: -0.131,inactive: 0,inactive: 0,inactive: 0.007,inactive: 0.014,inactive: 0.116,inactive: 0.006,inactive: 0.028,inactive: 0.03,inactive: -0.024,inactive: -0.028,inactive: -0.05,inactive: 0.048,inactive: 0.007,inactive: 0.044,inactive: 0.02,inactive: 0.02,inactive: -0.025,inactive: 0.016
SCRN2 (UniProt Q96FV2),inactive: 0.044,inactive: 0.105,inactive: -0.098,inactive: 0.15,inactive: -0.141,inactive: -0.038,inactive: 0.011,inactive: 0.1,inactive: 0.019,inactive: 0.095,inactive: 0.037,inactive: 0.013,inactive: 0.011,inactive: -0.062,inactive: 0.008,inactive: -0.121,inactive: -0.038,inactive: -0.059,inactive: 0.024,inactive: 0.084
SAR1A (UniProt Q9NR31),inactive: -0.034,inactive: 0.153,inactive: 0.03,inactive: 0.086,inactive: 0.086,inactive: 0.152,inactive: 0.084,inactive: 0.134,inactive: 0.161,inactive: 0.156,inactive: 0.101,inactive: 0.191,inactive: -0.056,inactive: 0.033,inactive: 0.002,inactive: 0.341,inactive: 0.027,active: 0.504,inactive: -0.022,inactive: 0.156
SCO1 (UniProt O75880),inactive: 0.002,inactive: -0.031,inactive: -0.051,inactive: -0.004,inactive: 0.053,inactive: -0.004,active: -0.57,inactive: -0.096,inactive: 0.014,inactive: -0.015,inactive: 0.021,inactive: -0.046,inactive: -0.046,inactive: -0.022,inactive: -0.014,inactive: 0.047,inactive: 0.01,inactive: 0.026,inactive: 0.048,inactive: 0.073
SEC31A (UniProt D6REX3),inactive: 0.015,inactive: 0.046,inactive: -0.021,inactive: 0.004,inactive: -0.048,inactive: -0.007,inactive: -0.023,inactive: 0.01,inactive: -0.004,inactive: 0.014,inactive: 0.003,inactive: -0.006,inactive: -0.02,inactive: -0.03,inactive: 0.014,inactive: -0.019,inactive: 0.004,inactive: 0.015,inactive: 0.027,inactive: 0.006
SCFD1 (UniProt Q8WVM8),inactive: 0.022,inactive: -0.037,inactive: 0.027,inactive: 0.019,inactive: -0.009,inactive: 0.014,inactive: 0.078,inactive: 0.016,inactive: 0.005,inactive: -0.034,inactive: -0.01,inactive: -0.037,inactive: -0.045,inactive: -0.035,inactive: -0.022,inactive: -0.031,inactive: -0.017,inactive: 0,inactive: -0.028,inactive: 0.018
